Reference: paper PMC12643354, “From Oxygen to Tellurium: The Impact of the Chalcogen on Nucleophilicities and Basicities of Isochalcogenourea Catalysts” (Angewandte Chemie (International Ed. in English), 2025)

Assay: Trapping of catalyst-allenoate adducts, 1H NMR monitoring of allenoate decrease
Conditions: 1:1:1 allenoate, catalyst hydrochloride in CDCl3, 298 K

Compound	Rate of addition to allenoate (formation of adducts 28 and 29)
c1ccc2c(c1)[Te]C1=NCCCN12 [ITeU3, TeDHPB]	so fast that it could not be followed by these NMR techniques anymore
CC(C)[C@@H]1CN2C(=N[C@@H]1c1ccccc1)[Se]c1ccccc12 [ISeU5, SeHyperBTM]	fastest
